{
  "sequences": {"note": "By UniProt entry, the sequences of proteins in these tests, tags left out. Where a name states a change or a piece, a line headed by the entry shows the natural chain unless it says otherwise.", "UniProt P11473": "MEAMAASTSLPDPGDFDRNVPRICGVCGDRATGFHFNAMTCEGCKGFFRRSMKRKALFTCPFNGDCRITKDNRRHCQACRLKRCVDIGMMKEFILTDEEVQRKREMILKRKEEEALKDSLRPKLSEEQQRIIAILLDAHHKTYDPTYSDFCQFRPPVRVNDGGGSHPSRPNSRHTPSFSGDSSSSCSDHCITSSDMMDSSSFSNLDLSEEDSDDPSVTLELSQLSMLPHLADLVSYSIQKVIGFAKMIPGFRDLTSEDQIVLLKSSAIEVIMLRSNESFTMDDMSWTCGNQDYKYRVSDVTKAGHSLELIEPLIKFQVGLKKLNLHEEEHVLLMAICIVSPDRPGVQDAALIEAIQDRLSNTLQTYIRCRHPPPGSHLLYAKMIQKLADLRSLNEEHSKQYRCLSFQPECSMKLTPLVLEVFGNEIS"},
  "source": "PubChem BioAssay AID504847",
  "about": "(National Center for Advancing Translational Sciences (NCATS), 2011)",
  "note": "Where “and” joins values, the source holds several entries; their conditions need not be identical. Equal values may be shown once. Among all 400,000 compounds or so, about 3,700 (0.93%) were called active. Inconclusive results, whose numbers are uncertain, are shown with a selection of clear calls. Calls come from the whole dose curve; as a rule, active = well fitted inhibition curve with a large enough effect; inconclusive = small, poorly fitted or top-dose-only effect, or another doubt; inactive = no such curve, though single readings can be large or run the other way. Potencies beside an inconclusive call are fits to weak or partial responses and may not hold up. % is set by controls: 0 for no effect and ±100 for the full control effect; potency is the fitted concentration of half-maximal effect.",
  "data": [
    {"molecular_target": "Vitamin D3 receptor (Homo sapiens) (UniProt P11473)", "assay": "Inhibitors of the vitamin D receptor (VDR): qHTS", "settings": "VDR-SRC2-3 peptide fluorescence polarization, 2 h; max response, negative = inhibition: hits give low values", "summary_of_the_method": "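Compounds are added to VDR with labelled SRC2-3 coactivator peptide and held 2 h at room temperature. Inhibition of the VDR–peptide interaction is then read as a change in fluorescence polarization.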", "values": [
      {"smiles": "COc1ccccc1NS(=O)(=O)c1cccc(NC(=O)NCCCl)c1", "Potency": "inconclusive: 17.8 µM [inhibitor, partial curve, poor fit]"},
      {"smiles": "Cc1cccc(NC(=S)Nn2cnnc2)c1C", "Potency": "inconclusive: 56.2 µM [inhibitor, single point]"},
      {"smiles": "COC(=O)c1ccccc1O", "max response, negative = inhibition": "inactive: 5.89%"},
      {"smiles": "C=C1[C@@H](O)[C@H](Cc2ccccc2)N(Cc2ccccc2Br)S1(=O)=O", "Potency": "inconclusive: 89.1 µM [inhibitor, partial curve, poor fit]"},
      {"smiles": "Cc1ccc(NC(=O)CSC(N)=O)cc1Cl", "Potency": "inconclusive: 44.7 µM [inhibitor, partial curve, poor fit]"},
      {"smiles": "COC(=O)COc1c(Cl)cc(C(c2c(C)[nH][nH]c2=O)c2c(C)[nH][nH]c2=O)cc1OC", "Potency": "inconclusive: 100 µM [inhibitor, single point]"},
      {"smiles": "O=C(ONC1=NCCCCC1)c1c(F)cccc1F", "max response, negative = inhibition": "inactive: 7.57%"},
      {"smiles": "Cc1ccc(NC(=O)c2sc3nc[nH]c(=O)c3c2C)cc1C", "max response, negative = inhibition": "inactive: 18.1%"},
      {"smiles": "CCCCCCCCSc1nnc2[nH]c(=O)cc(N)n12", "Potency": "inconclusive: 28.2 µM [inhibitor, single point]"},
      {"smiles": "O=C1CCCCC1Sc1ccc(Cl)cc1[N+](=O)[O-]", "note": "(stereo not given)", "Potency": "inconclusive: 56.2 µM [inhibitor, partial curve, poor fit]"},
      {"smiles": "CCOc1ccccc1NC(=O)N1CCC(N2CCN(Cc3ccccc3)C(=O)C2=O)CC1", "max response, negative = inhibition": "inactive: 5.89%"},
      {"smiles": "CCOC(=O)c1c(NC(=O)c2cc(-c3ccc(Br)cc3)on2)sc(C)c1C", "Potency": "active: 79.4 µM"},
      {"smiles": "O=C(O)c1ccccc1NS(=O)(=O)c1ccc(NN=Cc2cccc(Cl)c2)c([N+](=O)[O-])c1", "Potency": "inconclusive: 79.4 µM [inhibitor, partial curve, poor fit]"},
      {"smiles": "Cc1ccc(Sc2c(C)nn(-c3ccccc3)c2OC(=O)CC(C)C)cc1", "Potency": "active: 79.4 µM"},
      {"smiles": "O=C(CNC(=O)c1ccco1)NCC(c1ccco1)N1CCCCC1", "note": "(stereo not given)", "Potency": "inconclusive: 3.16 µM [inhibitor, partial curve, poor fit]"},
      {"smiles": "Cc1nn(-c2ccc(N3CCCCC3)nn2)c(C)c1CCC(=O)Nc1cccc(F)c1", "max response, negative = inhibition": "inactive: -2.19% and inactive: 5.24%"},
      {"smiles": "Cc1cccc(N2CCN(C(=O)C3CCC(=O)N(C4CC4)C3)CC2)c1C", "note": "(stereo not given)", "Potency": "inconclusive: 15.8 µM [inhibitor, partial curve, poor fit]"},
      {"smiles": "CCOC(=O)c1sc(=S)n(C)c1NC(=O)c1ccccc1", "Potency": "active: 79.4 µM"},
      {"smiles": "CCn1c(SCC(=O)Nc2ccc(C)cc2)nnc1-c1ccccn1", "max response, negative = inhibition": "inactive: 0.581%"},
      {"smiles": "Cc1cccc(NC(=O)CSc2nc(=O)n(CCCN3CCOCC3)c3c2CCCC3)c1", "max response, negative = inhibition": "inactive: 6.48%"},
      {"smiles": "CCN(CC)S(=O)(=O)c1ccc(N2CCN(C)CC2)c(NC(=O)COc2ccc(F)cc2Cl)c1", "max response, negative = inhibition": "inactive: 9.07%"},
      {"smiles": "O=C(/C=C/c1ccc(O)c([N+](=O)[O-])c1)c1ccc2ccccc2c1", "Potency": "inconclusive: 12.6 µM [inhibitor, partial curve, poor fit]"},
      {"smiles": "Cc1ccc(NC(=O)c2ccc(=O)[nH]n2)cc1S(=O)(=O)Nc1ccccc1Cl", "max response, negative = inhibition": "inactive: -11.8%"},
      {"smiles": "Cc1[nH][nH]c(=O)c1C(c1ccc2c(c1)OCO2)c1c(C)[nH][nH]c1=O", "Potency": "inconclusive: 100 µM [inhibitor, single point]"},
      {"smiles": "COc1cccc(-c2cncnc2NCCN2CCOCC2)c1", "Potency": "inconclusive: 31.6 µM [inhibitor, partial curve]"},
      {"smiles": "Cc1ccc(-c2noc(CNS(=O)(=O)c3ccccc3)n2)cc1", "max response, negative = inhibition": "inactive: 10.7%"},
      {"smiles": "COc1ccccc1CN1CCC2(CC1)CCN(C(=O)c1cccn1C)CC2", "max response, negative = inhibition": "inactive: 4.09%"},
      {"smiles": "CCOC(=O)Cn1c(=O)cc(C)c2c(C)nn(-c3cccc(F)c3)c21", "max response, negative = inhibition": "inactive: 2.58%"},
      {"smiles": "CS(=O)(=O)c1nc(S(=O)(=O)c2ccc(Cl)cc2)c(NCc2ccccn2)s1", "max response, negative = inhibition": "inactive: -9.23%"},
      {"smiles": "COc1ccc(C(=O)c2no[n+]([O-])c2C(=O)c2ccc(OC)cc2)cc1", "Potency": "inconclusive: 56.2 µM [inhibitor, partial curve, poor fit]"},
      {"smiles": "COC(=O)COc1ccc(-c2nccc(-c3ccc(Br)cc3)n2)cc1", "Potency": "active: 28.2 µM"},
      {"smiles": "O=C(NC(Cc1ccccc1)C(=O)Oc1ccc2c(C(F)(F)F)cc(=O)oc2c1)OCc1ccccc1", "note": "(stereo not given)", "Potency": "inconclusive: 89.1 µM [inhibitor, single point]"},
      {"smiles": "O=C(O)CN1C(=O)/C(=C\\c2cccc(OCc3ccc(Cl)cc3Cl)c2)SC1=S", "Potency": "inconclusive: 14.1 µM [inhibitor, full curve, poor fit]"},
      {"smiles": "O=C(CCS(=O)(=O)c1nc(-c2ccc3c(c2)OCO3)cc(C(F)(F)F)n1)Nc1ccccc1C(F)(F)F", "Potency": "inconclusive: 11.2 µM [inhibitor, full curve]"},
      {"smiles": "c1ccc(CCc2nn3c(Cn4nnc5ccccc54)nnc3s2)cc1", "Potency": "inconclusive: 56.2 µM [inhibitor, partial curve, poor fit]"},
      {"smiles": "CN(C)c1ccc(N=Cc2nc(-c3ccccc3)oc2OC(=O)c2cccc(Br)c2)cc1", "Potency": "inconclusive: 44.7 µM [inhibitor, partial curve, poor fit]"},
      {"smiles": "CCOC(=O)c1cc(-c2ccc(C)cc2)n(CC(=O)Nc2cc(C)ccc2C)c1C", "max response, negative = inhibition": "inactive: -7.01%"},
      {"smiles": "COc1ccc(C(=O)NCc2nnc(SC)n2Cc2ccccc2)cc1", "max response, negative = inhibition": "inactive: -8.36%"},
      {"smiles": "COc1ccc(-c2cc(C(F)(F)F)n3nc(C(=O)Nc4ccc(Cl)cc4C(F)(F)F)cc3n2)cc1OC", "max response, negative = inhibition": "inactive: 8.59%"},
      {"smiles": "Cc1ccccc1NC(=O)C1CCN(S(=O)(=O)c2cccc3nonc23)CC1", "max response, negative = inhibition": "inactive: 5.73% and inactive: 8.93%"},
      {"smiles": "CC1=NN(c2ccc(S(=O)(=O)O)cc2Cl)C(=O)C1", "Potency": "inconclusive: 22.4 µM [inhibitor, full curve]"},
      {"smiles": "Cc1c(N=Cc2cc3c(cc2[N+](=O)[O-])OCO3)cccc1[N+](=O)[O-]", "Potency": "active: 89.1 µM"},
      {"smiles": "Cc1c(Cc2ccc3c(c2)OCO3)sc(NC(=O)c2cccc3ccccc23)c1C(N)=O", "Potency": "inconclusive: 44.7 µM [inhibitor, partial curve, poor fit]"},
      {"smiles": "Cc1ccc(C=Nc2ccc(N(C)C)cc2)o1", "Potency": "active: 1 µM"},
      {"smiles": "CN1CCN(C(=O)c2cccc(-c3cc(O)c4ncccc4c3)c2)CC1", "max response, negative = inhibition": "inactive: 3.55%"},
      {"smiles": "O=C1C=CC(=O)C(C2=C3C(=O)N(CCc4ccccc4)CC(=O)N3CCC2)=C1", "Potency": "active: 31.6 µM"},
      {"smiles": "CCn1c(SCC(=O)c2c[nH]c3ccccc23)nnc1-c1cccs1", "max response, negative = inhibition": "inactive: 4.66%"},
      {"smiles": "CC(C)(C)c1ccc(OCCC(=O)Nc2cccc(S(=O)(=O)N3CCCC3)c2)cc1", "max response, negative = inhibition": "inactive: -0.449%"},
      {"smiles": "COc1ccc(N2CCN(c3ncnc4onc(C)c34)CC2)cc1", "max response, negative = inhibition": "inactive: 6.66%"},
      {"smiles": "N#CC(c1ccc(Cl)cc1)c1c(Cl)cc(-n2ncc(=O)[nH]c2=O)cc1Cl", "note": "(stereo not given)", "Potency": "active: 28.2 µM"},
      {"smiles": "CC1CCCN(S(=O)(=O)c2ccc(NC(=O)C3CCN(C(=O)c4ccco4)CC3)cc2)C1", "note": "(stereo not given)", "Potency": "inconclusive: 100 µM [inhibitor, single point]"},
      {"smiles": "COc1cc(NC(=S)Nc2ccccn2)c(OC)cc1Cl", "max response, negative = inhibition": "inactive: -8.54%"},
      {"smiles": "Cc1ccc2sc(N3CCN(C(=O)c4ccc([N+](=O)[O-])o4)CC3)nc2c1C", "Potency": "inconclusive: 89.1 µM [inhibitor, single point]"},
      {"smiles": "Cc1ccc(C2(c3ccccc3)NC(=O)N(CC(=O)NCc3ccco3)C2=O)cc1C", "note": "(stereo not given)", "Potency": "inconclusive: 89.1 µM [inhibitor, partial curve, poor fit]"},
      {"smiles": "COC(=O)c1cc(C)nc2c1c(=O)nc(SCc1cccc(C(F)(F)F)c1)n2C1CC1", "max response, negative = inhibition": "inactive: 7.75%"},
      {"smiles": "C/C(=N/NC(=O)c1ccc2c(c1)OCO2)c1cccc(NC(=O)C(C)(C)C)c1", "Potency": "inconclusive: 79.4 µM [inhibitor, single point]"},
      {"smiles": "Cc1ccccc1NC(=O)c1ccc(S(=O)(=O)N2CCCC2)cc1", "max response, negative = inhibition": "inactive: 5.56%"},
      {"smiles": "CCCCCCC(O)C/C=C/CCCCCCCC(=O)O", "note": "(stereo not given)", "Potency": "inconclusive: 56.2 µM [inhibitor, partial curve, poor fit]"},
      {"smiles": "O=C1OC(/C=C/c2ccccc2)=NC/1=C\\c1cccnc1", "Potency": "inconclusive: 56.2 µM [inhibitor, partial curve, poor fit]"},
      {"smiles": "CSc1nnc(N2C(=O)C(O)=C(C(=O)c3ccco3)C2c2ccc(F)cc2)s1", "note": "(stereo not given)", "max response, negative = inhibition": "inactive: 2.85%"},
      {"smiles": "CCOC(=O)c1c(NC(=O)c2ccccc2C)sc2c1CCCC2", "Potency": "active: 79.4 µM"},
      {"smiles": "CCN1CCn2c3c(c4cc(Cl)ccc42)CCCC31", "note": "(stereo not given)", "Potency": "inconclusive: 10 µM [inhibitor, partial curve, poor fit]"},
      {"smiles": "Cc1ccc(S(=O)(=O)N2CCC(c3nnc(-c4cccc(C)c4)o3)CC2)cc1", "Potency": "inconclusive: 70.8 µM [inhibitor, partial curve, poor fit]"},
      {"smiles": "CCOC(=O)CNc1nc(Cl)c(C#N)s1", "max response, negative = inhibition": "inactive: 10.2%"},
      {"smiles": "c1ccc2oc(-c3csc(NCC4CCCO4)n3)cc2c1", "note": "(stereo not given)", "Potency": "active: 79.4 µM"},
      {"smiles": "CC(=O)c1c(C)nc(-c2ccccc2)nc1NC(=O)C(C)C", "max response, negative = inhibition": "inactive: -4.03%"},
      {"smiles": "Cc1cccc(NCc2ccc(O)c3ncccc23)c1C", "Potency": "inconclusive: 12.6 µM [inhibitor, partial curve, poor fit]"},
      {"smiles": "CCCCCCn1c(=O)[nH]c2nc3cc(N)c(C)cc3nc2c1=O", "Potency": "inconclusive: 89.1 µM [inhibitor, single point]"},
      {"smiles": "COc1c(O)c(O)c2cc(OC)c3c(OC)cc(=O)c4c5c(=O)c(OC)c(C(C)=O)c6c5c(c1CC=6C)c2c34", "Potency": "inconclusive: 50.1 µM [inhibitor, partial curve]"},
      {"smiles": "Cc1ccc(S(=O)(=O)N(CC(=O)NCc2ccncc2)C2CCCCC2)cc1", "Potency": "inconclusive: 7.08 µM [inhibitor, single point]"}
    ]}
  ]
}
